From patent US10092633B2, “Newly identified peptides for use in the induction of oral tolerance in young mammals” (NESTEC S.A., priority 2013, dated 2018)
Some of these results come from one statement about several compounds together.

Test system: BLG-specific IgE antibodies
Experiment: experimental mouse model of sensitization to BLG: gavage, then i.p. sensitization, BLG-specific IgE in serum
Format: in vivo, BALB/cJ mice
Conditions: inventors' conclusion from the results of the long peptides (25-107) and (84-106), FIG. 1
Protocol: Mice were fed either native BLG or either synthetic peptide (84-106) or (25-107) by gavage on day 1, 2, 3, 8, 9 and 10. They were then sensitized by i.p. administration with native BLG on day 14. Serum IgE levels were measured between day 30 and 33.
Specific pathogen-free (SPF) BALB/cJ mice (3 to 4 weeks-old females, Centre d'Elevage René Janvier, Le Genest Saint-Isle, France) were housed in filtered cages under normal SPF husbandry conditions (autoclaved bedding and sterile water) and were acclimatized for two weeks before experiments. They were maintained on a diet deprived of animal protein, and in which BLG was not detected using specific sandwich immunoassays. All animal experiments were performed according to European Community rules of animal care, and with authorization 91-368 of the French Veterinary Services. All experiments were covered by agreement No. 2009-DDSV-074 (Oct. 29, 2009) from the Veterinary Inspection Department of Essonne (France).
Groups of 6 or 7 mice were administered either 4 mg of native bovine BLG, or equivalent quantity (i.e. 0.22 μmole) of isolated synthetic BLG peptides. Either 0.6 mg of synthetic peptide (84-106), corresponding to the bovine BLG sequence numbers 84-106 (MW 2731 Da), or 2 mg of synthetic peptide (25-107) corresponding to the bovine BLG sequence numbers 25-107 (MW 9440 Da), were administered (n=7/group). Nine control mice received PBS. The synthetic peptides (25-107) and (84-106) were diluted in PBS. Administrations were performed on Days 1, 2, 3, 8, 9 and 10 by means of intra-gastric gavage using an animal feeding needle (Popper & sons, NY). Control mice received PBS (negative control mice, n=16). All mice were then sensitized on Day 14 by i.p. administration of 5 μg of native bovine BLG adsorbed on alum (Alhydrogel 3%, Superfos, Danemark, 1 mg/mouse).
The efficacy of mice sensitization was assessed by quantitative measurements of BLG-specific IgE antibodies on individual serum samples collected from the mice retro-orbital venous plexus under light anaesthesia (Isoflurane, Baxter) between days 30-33. Non-specific binding was determined using individual sera from 10 naive mice, and was deduced from the absorbance values measured with immune sera.
All statistical analyses were performed using GraphPad Prism version 4.00 for Windows (GraphPad Software, San Diego, Calif., USA). Normality distribution was first examined using Shapiro-Wilk normality test before analysis of the statistical significance with one-way ANOVA and Tukey's multiple comparison post-test. When data were not normally distributed, a non-parametrical test was performed, using Kruskal-Wallis test followed by Dunn's multiple comparison test (DMCT). Differences between groups were regarded as significant when p<0.05.

Substance	effectiveness in inducing oral tolerance / down-regulation of IgE relative to known peptides a, b and c
DAQSAPLR (listed as Bos taurus) [compound 3, BLG position 49-56]	down-regulate the expression of IgE to a greater extent
IIAEK (listed as Bos taurus) [compound 5, BLG position 87-91]	down-regulate the expression of IgE to a greater extent
KGLDIQK (listed as Bos taurus) [compound 2, BLG position 24-29]	down-regulate the expression of IgE to a greater extent
VEELKPTPE (listed as Bos taurus) [compound 4, BLG position 59-67]	down-regulate the expression of IgE to a greater extent
